Measured values taken from US20210274789A1, “Antimicrobial Surface Treatment” (Kode Biotech Limited, priority 2018, published 2021).
Part of at least one peptide drawing is inferred or uncertain, most often the ends.

Tests used:
Type in all cases: cell-based
[1] = tested on: Escherichia coli; assay: Growth on bandage substrate treated with crystal violet alone or with a construct, resazurin colour change; parameters: key: No growth: dark blue (no growth); Reduced growth: purple (reduced growth); Growth: light red (growth); conditions: 0.13 mM construct in combination with crystal violet; challenge >10^5 cfu
Procedure: (§1) Swatches (1 cm diameter circular disks) were cut from the fabric portion of commercially available adhesive bandages (BAND-AID™ Quilt-Aid Technology, Johnson & Johnson). Volumes of 50 μL were dispended onto the surface of the swatches and the swatches allowed to air dry undisturbed at 80° C. The volumes consisted of dispersions or solutions in deionized water of 0.04% (w/v) crystal violet, 0.25 mM or 0.13 mM of the construct designated FSL-Se or the construct designated FSL-0, or water alone. A further volume of 100 μL of 0.04% (w/v) crystal violet in deionized water was dispensed onto the surface of the dried treated swatches and incubated undisturbed at room temperature for 10 minutes before rinsing as before with sterile deionized water.
(§2) Frozen stock cultures of bacterial isolates (Staphylococcus aureus, Staphylococcus epidermis, Escherichia coli or Pseudomonas aeruginosa) were streaked on Columbia sheep blood agar plates (Fort Richard Laboratories) and the plates incubated at 37° C. for 24 hours when separate colonies had developed. Two to three colonies were then transferred to a volume of 10 mL of 21 g/L Muller-Hinton (MH) broth, vortexed and the turbidity measured at 600 nm. The MH broth was diluted with a further volume so that the turbidity provided an optical density of 0.20 for the suspensions of Staphylococcus aureus and Staphylococcus epidermis and 0.08 for the suspensions of Escherichia coli and Pseudomonas aeruginosa. The diluted suspensions (around 10^8 cfu/mL) were serially diluted.
(§3) Individual treated swatches from each treatment group were placed at the base of separate wells in a 96-well cell culture plate. Volumes of 10 μL of serial dilutions of the suspensions of bacteria were dispensed onto the surface of the swatches (excluding the negative control). The inoculated swatches were then incubated undisturbed at room temperature for 10 minutes before dispensing into each well a volume of 50 μL of sterile deionized water and 150 μL of MH broth containing 0.02% resazurin sodium salt (Sigma-Aldrich).
(§4) The colour change (if any) observed in each well was observed after incubation of the plate for 24 hours at 37° C. Observations are recorded in Tables 1, 2, 3 and 4.

[2] = tested on: Pseudomonas aeruginosa; assay: as above; parameters: key: No growth: dark blue (no growth); Reduced growth: purple (reduced growth); Growth: light red (growth); conditions: 0.13 mM construct in combination with crystal violet; challenge <500 cfu
Procedure: as §1, §2, §3, §4

[3] = tested on: Staphylococcus aureus; assay: as above; parameters: key: No growth: dark blue (no growth); Reduced growth: purple (reduced growth); Growth: light red (growth)
Procedure: as §1, §2, §3, §4

[4] = tested on: Staphylococcus epidermis; assay: as above; parameters: key: No growth: dark blue (no growth); Reduced growth: purple (reduced growth); Growth: light red (growth); conditions: 0.13 mM construct in combination with crystal violet
Procedure: as §1, §2, §3, §4

[5] = tested on: Escherichia coli; assay: AgNP augmented antibacterial surface treatment of adhesive bandage swatches, resazurin; parameters: key: Growth: growth (growth); Inhibition: inhibition of growth (inhibition); No growth: prevention of growth (no growth); conditions: 37° C. for 24 hours, duplicate swatches
Procedure: (§5) Preparation of negatively charged silver nanoparticles Negatively charged nanoparticles of silver (AgNPs) were prepared according to the following method. Quantities of 2 g glucose and 1 g polyvinylpyrrolidone (PVP) were dissolved in water and the resultant volume heated to 90° C. A quantity of 0.5 g of silver nitrate (AgNO3) was dissolved in a separate volume of 1 mL water and the two volumes then rapidly mixed. The mixed volume was maintained at a temperature of 90° C. for a period of time of one hour before cooling to room temperature. The AgNPs were collected by repeated (3 times) centrifugation at 14,000 rpm for a period of time of 60 minutes and resuspension in deionised filtered water (Milli-Q) to remove excess oxidation products, PVP and silver ion (Ag^+). The washed suspension of AgNPs was stored in the dark at 4° C. The AgNPs were characterised by […] dispersive spectroscopy (EDS) and UV-Vis absorbance scanning.
(§6) Swatches (5×5 mm squares) were cut from the fabric portion of commercially available adhesive bandages (BAND-AID™, Quilt-Aid Technology, Johnson & Johnson). A volume of 50 μL of a 0.13 mM dispersion of one of the following constructs was pipetted onto the surface of a swatch: FSL-biotin, FSL-0, FSL-HA17 kDa, FSL-Se and FSL-spm.
(§7) The swatches were air-dried at a temperature of 80° C. prior to washing (3 times) with sterile, filtered, deionised water (Milli-Q).
(§8) Controls were prepared without contacting the swatches with constructs or without washing following contacting the swatches with construct. Individual treated squares (including controls) were placed in the bottom of individual wells of a 96-well plate and inoculated with a volume of 10 μL of a serial dilution of a log phase culture in Mueller Hinton (MH) broth of one of the following bacteria: • Staphylococcus aureus • Staphylococcus epidermis • Escherichia coli • Pseudomonas aeruginosa
(§9) The inoculated swatches were then incubated for 10 minutes before dispensing into each well of the plate a volume of 50 μL of sterile, filtered, deionised water (Milli-Q) and 150 μL of MH broth containing 0.00266% (w/v) resazurin and incubating for a period of time of 24 hours at a temperature of 37° C. The observations of resulting growth (as indicated by a colour change from blue to red) from the estimated bacterial load (2.5×10^4 or 2.5×10^6 colony forming units (cfu)) for each treatment and species of bacterium are recorded in Tables 5 to 8.

[6] = tested on: Pseudomonas aeruginosa; assay: as above; parameters: key: Growth: growth (growth); Inhibition: inhibition of growth (inhibition); No growth: prevention of growth (no growth); conditions: 37° C. for 24 hours, duplicate swatches
Procedure: as §5, §6, §7, §8, §9

[7] = tested on: Staphylococcus aureus; assay: as above; parameters: key: Growth: growth (growth); Inhibition: inhibition of growth (inhibition); No growth: prevention of growth (no growth); conditions: 37° C. for 24 hours, duplicate swatches
Procedure: as §5, §6, §7, §8, §9

[8] = tested on: Staphylococcus epidermis; assay: as above; parameters: key: Growth: growth (growth); Inhibition: inhibition of growth (inhibition); No growth: prevention of growth (no growth); conditions: 37° C. for 24 hours, duplicate swatches
Procedure: as §5, §6, §7, §8, §9

CCCCCCCC/C=C\CCCCCCCC(=O)OCC(COP(=O)(O)OCCNC(=O)CCCCC(=O)NCC(=O)NCC(=O)N(CC(=O)O)CC(=O)NCC(=O)NCC(=O)N(CC(=O)O)CC(=O)NCCNC(=O)CN(CC(=O)O)C(=O)CNC(=O)CNC(=O)CN(CC(=O)O)C(=O)CNC(=O)CN)OC(=O)CCCCCCC/C=C\CCCCCCCC (centres unmarked) [FSL-0, H-CMG(2)-Ad-DOPE]
Growth: Growth monitored by colour change of resazurin containing MH broth [1] | Growth monitored by colour change of resazurin containing MH broth ([4]; challenge >10^5 cfu) | Observations of growth, inhibition of growth or prevention of growth ([5]; unwashed following application of the FSL construct, load 1.99 × 10^4 cfu) | Observations of growth, inhibition of growth or prevention of growth ([5]; unwashed following application of the FSL construct, load 1.99 × 10^6 cfu) | Observations of growth, inhibition of growth or prevention of growth ([5]; washed following application of the FSL construct, load 1.99 × 10^4 cfu) | Observations of growth, inhibition of growth or prevention of growth ([5]; washed following application of the FSL construct, load 1.99 × 10^6 cfu) | Observations of growth, inhibition of growth or prevention of growth ([6]; unwashed following application of the FSL construct, load 1.75 x 10^4 cfu) | Observations of growth, inhibition of growth or prevention of growth ([6]; unwashed following application of the FSL construct, load 1.75 × 10^6 cfu) | Observations of growth, inhibition of growth or prevention of growth ([6]; washed following application of the FSL construct, load 1.75 x 10^4 cfu) | Observations of growth, inhibition of growth or prevention of growth ([6]; washed following application of the FSL construct, load 1.75 x 10^6 cfu) | Observations of growth, inhibition of growth or prevention of growth ([7]; unwashed following application of the FSL construct, load 2.53 × 10^4 cfu) | Observations of growth, inhibition of growth or prevention of growth ([7]; unwashed following application of the FSL construct, load 2.53 × 10^6 cfu) | Observations of growth, inhibition of growth or prevention of growth ([7]; washed following application of the FSL construct, load 2.53 × 10^4 cfu) | Observations of growth, inhibition of growth or prevention of growth ([7]; washed following application of the FSL construct, load 2.53 × 10^6 cfu) | Observations of growth, inhibition of growth or prevention of growth ([8]; unwashed following application of the FSL construct, load 2.11 × 10^4 cfu) | Observations of growth, inhibition of growth or prevention of growth ([8]; unwashed following application of the FSL construct, load 2.11 × 10^6 cfu) | Observations of growth, inhibition of growth or prevention of growth ([8]; washed following application of the FSL construct, load 2.11 × 10^4 cfu) | Observations of growth, inhibition of growth or prevention of growth ([8]; washed following application of the FSL construct, load 2.11 × 10^6 cfu)
No growth: Growth monitored by colour change of resazurin containing MH broth [2] | Growth monitored by colour change of resazurin containing MH broth ([3]; 0.13 mM construct in combination with crystal violet, challenge 10^3 to 5 × 10^3 cfu) | Growth monitored by colour change of resazurin containing MH broth ([3]; 0.13 mM construct in combination with crystal violet, challenge 10^4 to 1.5 × 10^4 cfu) | Growth monitored by colour change of resazurin containing MH broth ([3]; 0.13 mM construct in combination with crystal violet, challenge 500 to 1,000 cfu) | Growth monitored by colour change of resazurin containing MH broth ([3]; 0.13 mM construct in combination with crystal violet, challenge >10^5 cfu) | Growth monitored by colour change of resazurin containing MH broth ([3]; 0.25 mM construct in combination with crystal violet, challenge 10^3 to 5 × 10^3 cfu) | Growth monitored by colour change of resazurin containing MH broth ([3]; 0.25 mM construct in combination with crystal violet, challenge >10^5 cfu) | Growth monitored by colour change of resazurin containing MH broth ([4]; challenge 1.5 × 10^4 to 10^5 cfu)
